PubChem BioAssay AID652259, Drosophila RNAi Screening Center, 2013

- Assay: 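Genome-wide hunt for genes that control Wingless pathway activity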 (primary screen)
- Cell system: Drosophila clone 8 imaginal disc epithelial cells
- Reagents: long dsRNA against Drosophila genes
- Conditions: pathway stimulated by co-transfected Wingless expression plasmid
- Read-out: 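Dual luciferase reads per well after Wingless plasmid stimulation: reporter firefly light and Renilla control light; activity is firefly divided by Renilla, a ratio not deposited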
- Direction: firefly reporter light: higher = more Wg reporter light, before normalisation; Renilla control light: higher = more transfected or surviving cells
- Hit rule: 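Strong candidates differ from their plate mean by at least two out of four per-plate statistical tests; weak candidates meet just one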
- Calls: active = candidate regulator (raises or lowers reporter); inactive = not a candidate
The deposit covers about 22,000 reagents; this is a random part of those with a known target gene and a result. Over the whole deposit, 233 (1.1%) were called active. 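Light values are raw, unnormalised plate reads; the ratio scores behind the reporter calls were not deposited.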 Not stated in the record: the amount of reagent, the time to read-out, the dose of the treatment.

Against CG6503 [DRSC16056] the deposit lists firefly reporter light, replicate 1 = 25865; Renilla control light, replicate 1 = 24816; inactive.
hoe2 [DRSC00459] showed firefly reporter light, replicate 1 = 2134; firefly reporter light, replicate 2 = 5180; Renilla control light, replicate 1 = 1204; Renilla control light, replicate 2 = 1001; inactive.
CG34276 [DRSC15811] scored firefly reporter light, replicate 1 = 23061; Renilla control light, replicate 1 = 4984; inactive.
Silencing of BicD [DRSC02006] resulted in: firefly reporter light, replicate 1 = 11463; Renilla control light, replicate 1 = 4204; inactive.
CG34280 [DRSC13229] scored firefly reporter light, replicate 1 = 4338; Renilla control light, replicate 1 = 3152; inactive.
After knock-down of mh [DRSC20168], the screen gave firefly reporter light, replicate 1 = 16358; Renilla control light, replicate 1 = 6791; inactive.
For CG34299 [DRSC13974], the values are firefly reporter light, replicate 1 = 5809; Renilla control light, replicate 1 = 2442; inactive.

Reprinted from above for reference:
CG6503 [DRSC16056] — firefly reporter light, replicate 1 = 25865; Renilla control light, replicate 1 = 24816; Outcome = inactive
hoe2 [DRSC00459] — firefly reporter light, replicate 1 = 2134; firefly reporter light, replicate 2 = 5180; Renilla control light, replicate 1 = 1204; Renilla control light, replicate 2 = 1001; Outcome = inactive

Additional records follow.
Silencing of CG17636 [DRSC20648] resulted in: firefly reporter light, replicate 1 = 16277; Renilla control light, replicate 1 = 8920; inactive.
Depletion of capt [DRSC00676] resulted in: firefly reporter light, replicate 1 = 1722; firefly reporter light, replicate 2 = 7110; Renilla control light, replicate 1 = 693; Renilla control light, replicate 2 = 2160; inactive.
With knock-down of capt [DRSC00806], the record shows firefly reporter light, replicate 1 = 1526; firefly reporter light, replicate 2 = 7495; Renilla control light, replicate 1 = 725; Renilla control light, replicate 2 = 2407; inactive.
CG7406 [DRSC20042] scored firefly reporter light, replicate 1 = 14746; Renilla control light, replicate 1 = 8228; inactive.
Hsl [DRSC06028] showed firefly reporter light, replicate 1 = 9223; Renilla control light, replicate 1 = 2402; inactive.
